Results reported in article PMC7863242.
These are yes or no findings as the source states them, for the method shown. Binding seen in cells or lysates may run through a third protein. Some results given as binding are weak or reduced against the parent protein; the word gives no strength.

Protein sequences, listed by entry. Tags and fused reporters are not part of them.
UniProt O96019: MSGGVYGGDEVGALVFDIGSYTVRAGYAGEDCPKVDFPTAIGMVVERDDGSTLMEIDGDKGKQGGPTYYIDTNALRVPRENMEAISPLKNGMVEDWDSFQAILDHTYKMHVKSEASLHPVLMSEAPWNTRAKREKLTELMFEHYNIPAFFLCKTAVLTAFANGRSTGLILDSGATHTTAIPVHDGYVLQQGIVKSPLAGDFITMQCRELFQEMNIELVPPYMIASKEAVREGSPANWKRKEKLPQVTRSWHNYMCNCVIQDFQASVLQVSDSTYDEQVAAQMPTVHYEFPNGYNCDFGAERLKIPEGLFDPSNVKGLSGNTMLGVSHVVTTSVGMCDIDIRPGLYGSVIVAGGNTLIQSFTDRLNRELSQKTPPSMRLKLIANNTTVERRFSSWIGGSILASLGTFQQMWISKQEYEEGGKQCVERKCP
UniProt Q92993: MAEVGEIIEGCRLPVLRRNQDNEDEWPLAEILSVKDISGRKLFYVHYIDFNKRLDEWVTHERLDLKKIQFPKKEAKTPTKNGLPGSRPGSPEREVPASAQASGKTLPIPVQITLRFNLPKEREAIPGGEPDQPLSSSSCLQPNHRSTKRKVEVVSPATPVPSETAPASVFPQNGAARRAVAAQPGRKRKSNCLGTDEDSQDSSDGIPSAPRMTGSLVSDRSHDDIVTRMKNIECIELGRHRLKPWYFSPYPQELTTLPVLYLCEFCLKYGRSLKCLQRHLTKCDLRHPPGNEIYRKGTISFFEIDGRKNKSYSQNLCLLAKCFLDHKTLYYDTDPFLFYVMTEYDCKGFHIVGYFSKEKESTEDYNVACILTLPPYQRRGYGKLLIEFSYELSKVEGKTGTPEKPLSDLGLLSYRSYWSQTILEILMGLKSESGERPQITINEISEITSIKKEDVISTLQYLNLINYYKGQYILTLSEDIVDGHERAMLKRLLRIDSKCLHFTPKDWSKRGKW

Target: ACTL6A overexpressed in SUM159PT-ACTL6A cells (human) (UniProt O96019)
Assay: co-IP; IP assay in SUM159PT-ACTL6A cells (Fig. 2g)

binding: binds
Substance: KAT5 (from UniProt Q92993 1-513)
